Results on five sequences are retold here after publication PMC10380284, “Investigating the Prevalence of RNA-Binding Metabolic Enzymes in E. coli” (International Journal of Molecular Sciences, 2023).

Data set [1] addresses T1, Quinone oxidoreductase QorA (Escherichia coli K12) (UniProt P28304).
T1 sequence (looked up): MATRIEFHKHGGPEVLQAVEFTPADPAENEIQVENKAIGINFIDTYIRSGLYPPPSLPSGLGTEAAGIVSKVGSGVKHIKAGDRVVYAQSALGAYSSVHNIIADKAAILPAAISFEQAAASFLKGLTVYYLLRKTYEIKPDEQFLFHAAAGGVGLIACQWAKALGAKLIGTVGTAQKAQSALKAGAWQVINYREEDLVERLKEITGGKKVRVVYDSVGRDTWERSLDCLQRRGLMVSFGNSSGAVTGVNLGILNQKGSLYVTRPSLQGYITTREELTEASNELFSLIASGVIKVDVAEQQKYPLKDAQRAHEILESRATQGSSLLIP
The data set is described as follows: MST. Conditions: 10 mM NADPH; 50 mM Tris (HEPES for PykF), 80 mM NaCl, 10 mM KCl, 0.8 mM MgCl2, 0.5 mM DTT, pH 7.5, 30 min at 37 C (EMSA); MST same buffer + 0.05% Tween-20; recombinant protein; residues 1-327; protein details: N-terminal His (pCA24N, ASKA); label: Cy5. (In EMSA bound probe runs differently from free probe, usually more slowly.)

Data set [2] deals with T2, Phosphoglycerate kinase Pgk (Escherichia coli K12) (UniProt P0A799).
T2 sequence (looked up): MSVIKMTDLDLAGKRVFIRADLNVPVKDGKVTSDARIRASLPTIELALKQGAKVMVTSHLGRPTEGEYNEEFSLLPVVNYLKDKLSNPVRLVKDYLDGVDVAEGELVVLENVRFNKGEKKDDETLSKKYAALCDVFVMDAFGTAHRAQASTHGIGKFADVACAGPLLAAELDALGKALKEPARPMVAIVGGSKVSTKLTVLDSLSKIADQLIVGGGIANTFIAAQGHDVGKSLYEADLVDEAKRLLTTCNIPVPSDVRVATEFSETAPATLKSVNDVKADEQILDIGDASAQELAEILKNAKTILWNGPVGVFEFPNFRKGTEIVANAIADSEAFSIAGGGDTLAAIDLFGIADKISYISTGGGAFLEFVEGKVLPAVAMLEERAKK
The data set is described as follows: EMSA. Conditions: 30 uM Pgk, 7 uM RNA; 50 mM Tris (HEPES for PykF), 80 mM NaCl, 10 mM KCl, 0.8 mM MgCl2, 0.5 mM DTT, pH 7.5, 30 min at 37 C (EMSA); recombinant protein; residues 1-387; protein details: N-terminal His (pCA24N, ASKA); label: 5' 32P.

For data set [3], the target named is T1, Quinone oxidoreductase QorA (Escherichia coli K12). The data set is described as follows: EMSA. Conditions: 20 mM NADPH disrupts complex; 50 mM Tris (HEPES for PykF), 80 mM NaCl, 10 mM KCl, 0.8 mM MgCl2, 0.5 mM DTT, pH 7.5, 30 min at 37 C (EMSA); recombinant protein; residues 1-327; protein details: N-terminal His (pCA24N, ASKA); label: 5' 32P.

The exact form of at least one protein or probe is not confirmed. Weaker means in comparison with the reference protein, sequence or condition of that experiment. For some assays here: At least one verdict was read from the data and is not stated in words by the source. Protein sequences can lack the tags named with them.

Consider “GGAGCAUAUGGACUUCAGGGAAGGGAU [Cy5-yffO mRNA fragment]”, for which the binding result in data set [1] is listed as “binds more weakly”. In the case of “GCCGCGCUAAACAGCGCAUU [Pgk SELEX hairpin 1]”, the binding result in data set [2] is recorded as “binds more weakly”. Regarding “GGAGCAUAUGGACUUCAGGGAAGGGAU [yffO mRNA fragment, 27 nt]”, in data set [3], the binding result is on record as “binds more weakly”. For the sequence “CCCGCGCAAAAACGCAUCGU [Pgk SELEX hairpin 3]”, in data set [2], the binding result is recorded as “binds more weakly”. Still for that read-out and setting: the same measure for “AUGAGGCCAAAAAGCCGUAU [Pgk SELEX hairpin 2]”: “binds more weakly”.
